Results: the supplement of paper PMC4604168 (melanoma cell lines)
Some of the results follow. Many values rest on one well or one pass, so single values are uncertain.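 Imaging used 1,536-well plates; nuclei positive for cleaved PARP by antibody were divided by total DNA-stained nuclei to yield the apoptosis fraction. Doses for screening kept most cells viable, and cell lines differ markedly in resting and induced cleaved-PARP levels.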

Experiments:
Assay in all cases: cleaved PARP positive nuclei fraction relative to DMSO control; melanoma cells; higher = more apoptosis
Details in all cases: library dose: low library concentration; 72 h
501Mel = tested on: 501Mel
A101D = tested on: A101D
A2058 = tested on: A2058
C32 = tested on: C32
CBRC008 = tested on: CBRC008 (line from a melanoma biopsy)
CBRC014 = tested on: CBRC014 (line from a melanoma biopsy)
CBRC016 = tested on: CBRC016 (line from a melanoma biopsy)
CBRC017 = tested on: CBRC017 (line from a melanoma biopsy)

Row | SMILES | cleaved PARP positive nuclei fraction (501Mel) [%] | cleaved PARP positive nuclei fraction (A101D) [%] | cleaved PARP positive nuclei fraction (A2058) [%] | cleaved PARP positive nuclei fraction (C32) [%] | cleaved PARP positive nuclei fraction (CBRC008) [%] | cleaved PARP positive nuclei fraction (CBRC014) [%] | cleaved PARP positive nuclei fraction (CBRC016) [%] | cleaved PARP positive nuclei fraction (CBRC017) [%]
1 | CS(=O)(=O)c1ccc(C(=O)Nc2ccc(Cl)c(-c3ccccn3)c2)c(Cl)c1 [vismodegib] + Cc1cc([N+](=O)[O-])ccc1NS(=O)(=O)c1cc(Cl)ccc1Cl [FH535] (first compound 1 µM, partner dose 1 µM) | 36.7 | 19.6 | 88.5 | 182 | 342 | 166 | 435 | 134
2 | CCCCCCCCc1ccc(CCC(N)(CO)CO)cc1 [fingolimod] + CCN(CC)CCCCNc1ncc2cc(-c3cc(OC)cc(OC)c3)c(NC(=O)NC(C)(C)C)nc2n1 [PD173074] (first compound 2 µM, partner dose 0.1 µM) | 171 | 48.3 | 188 | 286 | 66.2 | 103 | 73.3 | 138
3 | C[C@@H](N)c1ccc(C(=O)Nc2ccnc3[nH]ccc23)cc1 + Cc1cc([N+](=O)[O-])ccc1NS(=O)(=O)c1cc(Cl)ccc1Cl [FH535] (first compound 0.4 µM, partner dose 1 µM) | 66.1 | 41.9 | 115 | 166 | 558 | 217 | 2550 | 592
4 | NC(=O)c1ccc(N(C(N)=O)c2c(F)cccc2F)nc1-c1ccc(F)cc1F + Oc1cc(-c2nc(-c3ccccc3)[nH]c2-c2ccncc2)ccc1Cl [L779450] (first compound 0.4 µM, partner dose 0.2 µM) | 117 | 27.4 | 79 | 180 | 81.3 | 95.3 | 41.2 | 90.6
5 | CC1(C)CCC(c2ccc(Cl)cc2)=C(CN2CCN(c3ccc(C(=O)NS(=O)(=O)c4ccc(N[C@H](CCN5CCOCC5)CSc5ccccc5)c(S(=O)(=O)C(F)(F)F)c4)cc3)CC2)C1 + COc1ccc(-c2ccc3c(N4CCOCC4)nc(N4C[C@@H](C)O[C@@H](C)C4)nc3n2)cc1CO [KU0063794] (first compound 0.4 µM, partner dose 0.02 µM) | 63.9 | 62.9 | 247 | 256 | 485 | 427 | 312 | 268
6 | C[C@@H](N)c1ccc(C(=O)Nc2ccnc3[nH]ccc23)cc1 + CCCCCCCCCCCC1=C(O)C(=O)C=C(O)C1=O [Embelin] (first compound 0.4 µM, partner dose 1.2 µM) | 113 | 87.9 | 94 | 50.5 | 81.9 | 106 | 100 | 91
7 | CC1(C)CCC(c2ccc(Cl)cc2)=C(CN2CCN(c3ccc(C(=O)NS(=O)(=O)c4ccc(N[C@H](CCN5CCOCC5)CSc5ccccc5)c(S(=O)(=O)C(F)(F)F)c4)cc3)CC2)C1 + N#Cc1c(O)c2c(-c3ccc(-c4ccccc4O)cc3)csc2[nH]c1=O [A769662] (first compound 0.4 µM, partner dose 2 µM) | 124 | 13.2 | 50.8 | 176 | 364 | 726 | 272 | 269
8 | CCN(CC)CCNC(=O)c1c(C)[nH]c(/C=C2\C(=O)Nc3ccc(F)cc32)c1C [sunitinib] + COc1ccc2c(c1)CCC1C2CCC2(C)C(NCCCCCCN3C(=O)C=CC3=O)CCC12 [U73122] (first compound 0.4 µM, partner dose 0.4 µM) | 88.3 | 90.3 | 72.2 | 85.8 | 72.5 | 83.7 | 112 | 69.3
9 | CCN(CC)CCNC(=O)c1c(C)[nH]c(/C=C2\C(=O)Nc3ccc(F)cc32)c1C [sunitinib] + Oc1cc(-c2nc(-c3ccccc3)[nH]c2-c2ccncc2)ccc1Cl [L779450] (first compound 0.4 µM, partner dose 0.2 µM) | 101 | 81.5 | 150 | 65.5 | 38.5 | 70.9 | 20.3 | 89.8
10 | CCCCCCCCc1ccc(CCC(N)(CO)CO)cc1 [fingolimod] + O=C1NC(=O)/C(=C/c2ccc(-c3ccc(F)cc3O)o2)S1 [AS252424] (first compound 2 µM, partner dose 1 µM) | 113 | 14.9 | 356 | 82.3 | 57.6 | 106 | 39 | 99.1

Single values from the entries so far:
NC(=O)c1ccc(N(C(N)=O)c2c(F)cccc2F)nc1-c1ccc(F)cc1F + Oc1cc(-c2nc(-c3ccccc3)[nH]c2-c2ccncc2)ccc1Cl [L779450] (first compound 0.4 µM, partner dose 0.2 µM) | cleaved PARP positive nuclei fraction (C32) [%]: 180
C[C@@H](N)c1ccc(C(=O)Nc2ccnc3[nH]ccc23)cc1 + CCCCCCCCCCCC1=C(O)C(=O)C=C(O)C1=O [Embelin] (first compound 0.4 µM, partner dose 1.2 µM) | cleaved PARP positive nuclei fraction (CBRC008) [%]: 81.9
